Reference: the supplement of paper PMC6411743
± gives the standard deviation of the averaged measurements. The list shows a part of the results.

Sequences of proteins named here, by UniProt entry; tags and fusion partners are left off. A change or cut given only in a name is not applied to a line headed by its entry.
UniProt Q8N488: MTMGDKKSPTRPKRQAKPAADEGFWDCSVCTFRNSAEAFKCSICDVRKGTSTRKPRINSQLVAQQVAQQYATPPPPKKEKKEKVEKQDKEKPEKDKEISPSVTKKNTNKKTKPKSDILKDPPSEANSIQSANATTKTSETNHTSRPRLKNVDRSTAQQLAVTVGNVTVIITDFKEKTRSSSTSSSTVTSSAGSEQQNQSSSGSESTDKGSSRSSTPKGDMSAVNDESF
UniProt Q8N3X1: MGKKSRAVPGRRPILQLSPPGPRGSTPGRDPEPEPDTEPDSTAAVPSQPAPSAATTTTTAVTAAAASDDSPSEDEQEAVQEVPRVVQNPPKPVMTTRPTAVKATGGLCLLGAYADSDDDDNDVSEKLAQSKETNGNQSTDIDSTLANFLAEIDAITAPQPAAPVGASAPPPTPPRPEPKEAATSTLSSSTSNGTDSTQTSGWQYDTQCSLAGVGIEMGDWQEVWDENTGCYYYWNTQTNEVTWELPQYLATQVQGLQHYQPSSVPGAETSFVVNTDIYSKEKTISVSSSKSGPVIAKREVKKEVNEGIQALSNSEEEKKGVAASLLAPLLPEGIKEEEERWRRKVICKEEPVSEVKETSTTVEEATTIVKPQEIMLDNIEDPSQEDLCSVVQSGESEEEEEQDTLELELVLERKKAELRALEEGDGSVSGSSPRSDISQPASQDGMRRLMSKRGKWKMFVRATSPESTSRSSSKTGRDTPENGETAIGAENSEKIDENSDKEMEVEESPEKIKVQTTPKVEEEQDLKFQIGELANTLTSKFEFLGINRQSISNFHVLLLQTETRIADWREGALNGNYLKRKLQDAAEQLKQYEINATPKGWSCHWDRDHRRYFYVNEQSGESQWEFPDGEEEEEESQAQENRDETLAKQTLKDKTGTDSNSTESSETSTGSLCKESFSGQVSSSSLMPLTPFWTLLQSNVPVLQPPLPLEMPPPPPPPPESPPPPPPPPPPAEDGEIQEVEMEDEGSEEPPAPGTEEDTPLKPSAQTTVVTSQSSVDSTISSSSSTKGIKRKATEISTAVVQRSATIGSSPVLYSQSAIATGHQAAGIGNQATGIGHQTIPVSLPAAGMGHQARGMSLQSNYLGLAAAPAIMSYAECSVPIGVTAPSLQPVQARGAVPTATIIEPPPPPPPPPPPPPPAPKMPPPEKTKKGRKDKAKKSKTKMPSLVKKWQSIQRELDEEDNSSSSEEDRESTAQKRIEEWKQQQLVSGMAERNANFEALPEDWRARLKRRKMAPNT
UniProt Q8N6S5: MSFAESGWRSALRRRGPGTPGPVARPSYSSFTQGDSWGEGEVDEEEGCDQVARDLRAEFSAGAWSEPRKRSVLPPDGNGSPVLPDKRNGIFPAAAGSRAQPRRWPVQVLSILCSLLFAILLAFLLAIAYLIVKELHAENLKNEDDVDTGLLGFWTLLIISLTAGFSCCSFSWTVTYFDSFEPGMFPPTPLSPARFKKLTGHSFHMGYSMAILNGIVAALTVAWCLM
UniProt Q8IZ07: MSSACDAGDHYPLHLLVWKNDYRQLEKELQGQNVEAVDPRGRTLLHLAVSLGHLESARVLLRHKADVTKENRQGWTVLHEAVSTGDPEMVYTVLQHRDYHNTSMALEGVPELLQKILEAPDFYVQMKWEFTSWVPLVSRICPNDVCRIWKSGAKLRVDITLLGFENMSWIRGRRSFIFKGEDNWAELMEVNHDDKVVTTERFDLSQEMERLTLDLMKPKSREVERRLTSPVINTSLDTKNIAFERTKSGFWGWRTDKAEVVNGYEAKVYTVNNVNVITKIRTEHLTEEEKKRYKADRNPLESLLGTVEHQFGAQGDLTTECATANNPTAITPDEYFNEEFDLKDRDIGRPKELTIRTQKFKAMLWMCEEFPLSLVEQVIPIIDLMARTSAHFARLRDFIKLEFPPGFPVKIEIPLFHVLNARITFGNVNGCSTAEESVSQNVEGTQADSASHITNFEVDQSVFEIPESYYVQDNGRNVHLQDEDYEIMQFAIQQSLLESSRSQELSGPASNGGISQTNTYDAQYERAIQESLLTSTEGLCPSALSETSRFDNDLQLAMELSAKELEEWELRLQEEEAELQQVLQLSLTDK
UniProt Q8NCW5: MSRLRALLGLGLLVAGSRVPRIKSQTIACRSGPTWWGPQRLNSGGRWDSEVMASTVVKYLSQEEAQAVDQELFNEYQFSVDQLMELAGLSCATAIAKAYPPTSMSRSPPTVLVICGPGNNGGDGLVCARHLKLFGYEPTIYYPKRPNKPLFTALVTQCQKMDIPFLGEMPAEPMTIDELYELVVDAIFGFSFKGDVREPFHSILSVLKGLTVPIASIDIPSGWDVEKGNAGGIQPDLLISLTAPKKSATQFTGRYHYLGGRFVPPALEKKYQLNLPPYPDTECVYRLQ
UniProt Q8TD16, whole entry: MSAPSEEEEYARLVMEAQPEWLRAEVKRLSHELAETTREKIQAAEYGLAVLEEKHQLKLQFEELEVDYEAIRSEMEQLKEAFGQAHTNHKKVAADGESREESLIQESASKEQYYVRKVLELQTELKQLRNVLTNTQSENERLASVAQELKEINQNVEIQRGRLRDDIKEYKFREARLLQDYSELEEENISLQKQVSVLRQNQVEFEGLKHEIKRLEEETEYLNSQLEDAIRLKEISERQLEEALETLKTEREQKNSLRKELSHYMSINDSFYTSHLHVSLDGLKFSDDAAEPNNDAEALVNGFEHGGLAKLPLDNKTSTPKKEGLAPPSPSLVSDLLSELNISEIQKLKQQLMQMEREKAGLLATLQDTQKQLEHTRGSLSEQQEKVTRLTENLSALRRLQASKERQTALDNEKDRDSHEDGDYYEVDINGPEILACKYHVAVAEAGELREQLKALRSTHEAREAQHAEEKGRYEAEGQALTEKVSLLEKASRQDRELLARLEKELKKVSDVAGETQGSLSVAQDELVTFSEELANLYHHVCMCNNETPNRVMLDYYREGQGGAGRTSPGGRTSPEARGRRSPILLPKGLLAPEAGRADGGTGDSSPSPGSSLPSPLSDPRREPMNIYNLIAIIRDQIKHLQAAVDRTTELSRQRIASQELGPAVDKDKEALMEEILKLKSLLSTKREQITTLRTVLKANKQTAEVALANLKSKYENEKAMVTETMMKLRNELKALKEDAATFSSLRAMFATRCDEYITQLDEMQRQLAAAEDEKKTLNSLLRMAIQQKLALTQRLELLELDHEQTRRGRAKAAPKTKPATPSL
UniProt Q8TEX9: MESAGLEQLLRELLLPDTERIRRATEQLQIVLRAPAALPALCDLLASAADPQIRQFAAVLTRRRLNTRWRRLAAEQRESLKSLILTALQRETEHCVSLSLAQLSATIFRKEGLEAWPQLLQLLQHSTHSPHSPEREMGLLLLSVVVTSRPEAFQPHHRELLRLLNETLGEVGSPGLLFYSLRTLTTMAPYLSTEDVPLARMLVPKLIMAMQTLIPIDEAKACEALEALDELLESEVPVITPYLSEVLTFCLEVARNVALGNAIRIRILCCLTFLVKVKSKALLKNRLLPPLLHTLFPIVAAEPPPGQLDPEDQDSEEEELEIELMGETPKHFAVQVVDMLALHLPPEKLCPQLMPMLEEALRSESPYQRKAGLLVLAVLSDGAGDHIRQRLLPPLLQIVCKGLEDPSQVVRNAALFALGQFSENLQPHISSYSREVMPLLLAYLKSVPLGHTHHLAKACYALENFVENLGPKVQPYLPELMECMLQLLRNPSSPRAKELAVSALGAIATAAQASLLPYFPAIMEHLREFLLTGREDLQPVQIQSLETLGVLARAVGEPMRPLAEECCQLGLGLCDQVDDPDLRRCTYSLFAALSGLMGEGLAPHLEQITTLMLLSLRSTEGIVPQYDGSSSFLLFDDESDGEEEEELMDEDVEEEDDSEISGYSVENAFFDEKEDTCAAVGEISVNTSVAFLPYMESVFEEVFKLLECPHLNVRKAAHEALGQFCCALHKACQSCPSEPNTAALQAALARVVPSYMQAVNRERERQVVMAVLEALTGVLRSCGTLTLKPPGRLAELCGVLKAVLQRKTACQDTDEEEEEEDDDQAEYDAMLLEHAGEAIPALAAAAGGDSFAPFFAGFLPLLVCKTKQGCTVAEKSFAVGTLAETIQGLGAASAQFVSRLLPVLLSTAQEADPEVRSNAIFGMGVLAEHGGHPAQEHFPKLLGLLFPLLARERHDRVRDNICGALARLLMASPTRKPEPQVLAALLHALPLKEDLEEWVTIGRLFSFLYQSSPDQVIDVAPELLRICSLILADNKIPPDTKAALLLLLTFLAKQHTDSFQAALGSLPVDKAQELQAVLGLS
UniProt Q8IWE4: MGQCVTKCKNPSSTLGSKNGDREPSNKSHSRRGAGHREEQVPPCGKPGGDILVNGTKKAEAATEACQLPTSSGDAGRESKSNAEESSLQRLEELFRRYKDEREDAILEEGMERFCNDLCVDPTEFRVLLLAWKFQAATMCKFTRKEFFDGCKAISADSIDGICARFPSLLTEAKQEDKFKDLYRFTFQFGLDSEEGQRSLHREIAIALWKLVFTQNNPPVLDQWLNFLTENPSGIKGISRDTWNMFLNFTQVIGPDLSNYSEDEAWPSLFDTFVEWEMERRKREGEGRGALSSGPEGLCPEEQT
UniProt Q8IY81: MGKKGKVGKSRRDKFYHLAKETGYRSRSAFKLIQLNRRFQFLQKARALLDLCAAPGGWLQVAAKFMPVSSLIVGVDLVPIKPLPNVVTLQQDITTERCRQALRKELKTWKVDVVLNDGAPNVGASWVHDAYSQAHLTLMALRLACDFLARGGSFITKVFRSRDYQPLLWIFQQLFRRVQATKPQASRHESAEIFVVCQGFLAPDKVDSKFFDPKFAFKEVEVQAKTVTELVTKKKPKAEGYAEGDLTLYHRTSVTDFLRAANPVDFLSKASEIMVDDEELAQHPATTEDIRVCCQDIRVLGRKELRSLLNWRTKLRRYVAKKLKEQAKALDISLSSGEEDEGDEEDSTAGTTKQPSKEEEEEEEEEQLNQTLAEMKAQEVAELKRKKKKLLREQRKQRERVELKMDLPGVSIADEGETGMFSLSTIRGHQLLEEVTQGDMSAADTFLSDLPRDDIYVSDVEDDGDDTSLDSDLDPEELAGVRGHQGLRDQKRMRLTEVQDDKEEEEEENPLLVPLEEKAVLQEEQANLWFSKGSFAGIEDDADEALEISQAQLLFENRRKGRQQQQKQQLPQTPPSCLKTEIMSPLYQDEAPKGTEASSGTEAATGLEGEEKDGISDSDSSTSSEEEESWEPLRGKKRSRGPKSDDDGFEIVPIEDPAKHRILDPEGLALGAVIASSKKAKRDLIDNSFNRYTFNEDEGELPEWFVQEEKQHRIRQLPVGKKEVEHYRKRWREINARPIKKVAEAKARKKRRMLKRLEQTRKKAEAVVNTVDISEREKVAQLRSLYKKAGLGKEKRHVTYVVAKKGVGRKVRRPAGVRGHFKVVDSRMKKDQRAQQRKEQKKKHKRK
UniProt Q8IUX7: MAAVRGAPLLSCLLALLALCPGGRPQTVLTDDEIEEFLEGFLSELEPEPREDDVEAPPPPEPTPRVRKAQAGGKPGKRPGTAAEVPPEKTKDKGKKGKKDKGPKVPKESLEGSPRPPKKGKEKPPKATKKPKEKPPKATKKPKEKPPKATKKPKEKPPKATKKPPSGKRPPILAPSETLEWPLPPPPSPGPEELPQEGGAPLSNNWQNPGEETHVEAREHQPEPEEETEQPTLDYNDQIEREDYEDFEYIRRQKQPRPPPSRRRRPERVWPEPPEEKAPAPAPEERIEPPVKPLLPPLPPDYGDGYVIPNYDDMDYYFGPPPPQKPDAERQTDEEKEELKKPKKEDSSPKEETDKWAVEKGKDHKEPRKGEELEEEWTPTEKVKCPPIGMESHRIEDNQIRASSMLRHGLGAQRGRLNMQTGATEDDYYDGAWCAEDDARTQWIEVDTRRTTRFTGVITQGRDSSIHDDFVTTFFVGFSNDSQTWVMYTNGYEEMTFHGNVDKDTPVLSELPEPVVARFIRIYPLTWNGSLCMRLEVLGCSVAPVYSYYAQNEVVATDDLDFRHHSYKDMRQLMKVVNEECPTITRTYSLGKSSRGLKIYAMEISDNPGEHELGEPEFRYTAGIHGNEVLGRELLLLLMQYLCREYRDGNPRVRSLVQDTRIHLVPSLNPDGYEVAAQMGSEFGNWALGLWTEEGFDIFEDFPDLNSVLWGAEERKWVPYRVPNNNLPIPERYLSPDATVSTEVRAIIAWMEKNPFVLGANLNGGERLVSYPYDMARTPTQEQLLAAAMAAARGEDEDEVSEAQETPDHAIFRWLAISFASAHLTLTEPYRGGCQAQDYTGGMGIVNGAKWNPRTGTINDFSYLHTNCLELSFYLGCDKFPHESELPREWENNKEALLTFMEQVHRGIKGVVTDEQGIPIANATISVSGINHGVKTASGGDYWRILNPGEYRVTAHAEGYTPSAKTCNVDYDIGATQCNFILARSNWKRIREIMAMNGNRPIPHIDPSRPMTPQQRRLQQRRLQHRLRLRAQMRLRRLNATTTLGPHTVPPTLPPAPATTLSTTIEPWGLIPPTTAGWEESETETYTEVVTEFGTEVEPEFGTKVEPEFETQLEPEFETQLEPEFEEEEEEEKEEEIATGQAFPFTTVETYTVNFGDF

The targets below were run with Nc1nc2c(ncn2[C@@H]2O[C@H](COP(=O)(O)OP(=O)(O)OP(=O)(O)O)[C@@H](O)[C@H]2O)c(=O)[nH]1 [guanosine triphosphate] (assay: NP40-soluble protein abundance relative to vehicle (solubility fold change) (ratio); higher = more soluble protein in presence of GTP). Conditions: concentration: 8mM.
Procedure, shortened: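 Values are fold changes against the detergent-processed vehicle, based on vsn-normalised intensities. Jurkat crude lysate was treated at eight concentrations from 0.1 to 10 mM (10 min at room temperature, then 3 min at 37 °C), solubilised with 0.8% NP40 and benzonase, ultracentrifuged and analysed by TMT-labelled LC-MS/MS over three independent experiments.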
RYBP (UniProt Q8N488) gave an NP40-soluble protein abundance of 0.969 ± 0.13.
For UniProt Q8N3X1 and related entries, the NP40-soluble protein abundance was 1.77 ± 0.15.
In the case of UniProt Q8NBN3 and related entries, the NP40-soluble protein abundance is reported as 0.884 ± 0.14.
Work on ARL6IP6 (UniProt Q8N6S5) yielded an NP40-soluble protein abundance of 0.982 ± 0.032.
Target UniProt Q8IY63 and related entries has an NP40-soluble protein abundance of 1.2 ± 0.1.
ANKRD13A (UniProt Q8IZ07) gave an NP40-soluble protein abundance of 0.969 ± 0.044.
Work on UniProt Q8NHV4 and related entries yielded an NP40-soluble protein abundance of 1.07 ± 0.081.
UniProt Q8IY95 and related entries showed an NP40-soluble protein abundance of 0.894 ± 0.066.
UniProt Q8IWV8 and related entries gave an NP40-soluble protein abundance of 1.02 ± 0.11.
For UniProt Q8NCW5, the NP40-soluble protein abundance was 0.895 ± 0.11.

Same assay, conditions: concentration: 10mM
With UniProt Q86Y56 the NP40-soluble protein abundance was 0.921 ± 0.075.
UniProt Q86X53 and related entries showed an NP40-soluble protein abundance of 1 ± 0.081.
In the case of UniProt Q8ND04 and related entries, the NP40-soluble protein abundance is reported as 1.03 ± 0.068.
Work on GALNT12 (UniProt Q8IXK2) yielded an NP40-soluble protein abundance of 0.889 ± 0.11.
UniProt Q8TDZ2 and related entries gave an NP40-soluble protein abundance of 0.879 ± 0.058.
UniProt Q8N122 and related entries gave an NP40-soluble protein abundance of 0.957 ± 0.067.
With UniProt Q8N5U6 and related entries the NP40-soluble protein abundance was 1.12 ± 0.089.
UniProt Q8TCT9 and related entries showed an NP40-soluble protein abundance of 0.878 ± 0.013.
Work on UniProt Q8N766 and related entries yielded an NP40-soluble protein abundance of 0.897 ± 0.063.
Work on UniProt Q8TD16 and related entries yielded an NP40-soluble protein abundance of 0.967 ± 0.032.
Work on UniProt Q8NFI3 and related entries yielded an NP40-soluble protein abundance of 0.938 ± 0.014.
With TTC5 (UniProt Q8N0Z6) the NP40-soluble protein abundance was 0.979 ± 0.029.
Target NDUFAF2 (UniProt Q8N183) has an NP40-soluble protein abundance of 1.02 ± 0.073.
UniProt Q8TEX9 and related entries was tested, and the NP40-soluble protein abundance was 0.9436 ± 0.0038.
In the case of DCUN1D3 (UniProt Q8IWE4), the NP40-soluble protein abundance is reported as 0.861 ± 0.12.
For UniProt Q8NHU6 and related entries, the NP40-soluble protein abundance was 1.04 ± 0.038.
Target UniProt Q8IXI2 and related entries has an NP40-soluble protein abundance of 0.928 ± 0.078.
FTSJ3 (UniProt Q8IY81) was tested, and the NP40-soluble protein abundance was 1.18 ± 0.029.
Target PNPT1 (UniProt Q8TCS8) has an NP40-soluble protein abundance of 0.923 ± 0.03.
ZADH2 (UniProt Q8N4Q0) gave an NP40-soluble protein abundance of 0.887 ± 0.048.
With UniProt Q86YP4 and related entries the NP40-soluble protein abundance was 1.24 ± 0.17.
In the case of NUP43 (UniProt Q8NFH3), the NP40-soluble protein abundance is reported as 1.13 ± 0.066.
RAB43 (UniProt Q86YS6) was tested, and the NP40-soluble protein abundance was 0.851 ± 0.054.
UniProt Q8IUX7 gave an NP40-soluble protein abundance of 1.16 ± 0.12.
INTS1 (UniProt Q8N201) was tested, and the NP40-soluble protein abundance was 1.3 ± 0.25.
CISD2 (UniProt Q8N5K1) gave an NP40-soluble protein abundance of 0.901 ± 0.08.
RYBP (UniProt Q8N488) showed an NP40-soluble protein abundance of 1 ± 0.16.
In the case of UniProt Q8N3X1 and related entries, the NP40-soluble protein abundance is reported as 2.04 ± 0.24.
UniProt Q8NBN3 and related entries was tested, and the NP40-soluble protein abundance was 0.918 ± 0.12.
Target ARL6IP6 (UniProt Q8N6S5) has an NP40-soluble protein abundance of 0.992 ± 0.11.
UniProt Q8IY63 and related entries was tested, and the NP40-soluble protein abundance was 1.27 ± 0.12.
In the case of ANKRD13A (UniProt Q8IZ07), the NP40-soluble protein abundance is reported as 0.925 ± 0.014.
For UniProt Q8NHV4 and related entries, the NP40-soluble protein abundance was 1.13 ± 0.069.
Target UniProt Q8IY95 and related entries has an NP40-soluble protein abundance of 0.902 ± 0.058.
UniProt Q8IWV8 and related entries showed an NP40-soluble protein abundance of 0.978 ± 0.053.
UniProt Q8NCW5 was tested, and the NP40-soluble protein abundance was 0.969 ± 0.1.
